Data as given in patent US20200071378A1.
No constants are given. Whether binding was seen depends on the method and setting. Some entries that bind do so weakly or less than the wild type.

Biological target: T1, recombinant murine OX40 protein (plate-bound) (murine) (UniProt P47741)
T1 sequence (looked up): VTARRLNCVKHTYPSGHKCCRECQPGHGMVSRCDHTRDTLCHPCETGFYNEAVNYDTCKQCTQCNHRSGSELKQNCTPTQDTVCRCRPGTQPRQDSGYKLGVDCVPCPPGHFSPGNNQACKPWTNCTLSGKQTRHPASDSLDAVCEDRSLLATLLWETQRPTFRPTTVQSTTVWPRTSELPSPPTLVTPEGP
Experiment: ELISA 'Binding to OX40', standard curve: plate-bound recombinant murine OX40, detection with anti-OX40L plus an HRP detection antibody; the axis is a dilution

binding: binds
B1: mOX40L Standard (ligand)
chain: SSSPAKDPPIQRLRGAVTRCEDGQLFISSYKNEYQTMEVQNNSVVIKCDGLYIIYLKGSFFQEVKIDLHFREDHNPISIPMLNDGRRIVFTVVASLAFKDKVYLTVNAPDTLCEHLQINDGELIVVQLTPGYCAPEGSYHSTVNQVPL
